Laboratory results as given in PubChem BioAssay AID493014 (National Center for Advancing Translational Sciences (NCATS), 2011).
The campaign covered roughly 340,000 compounds. About 170 (0.05%) were called active. Inconclusive results, whose numbers are uncertain, are shown with a selection of clear calls. The call rests on the fitted dose curve; in most records, active means well fitted inhibition curve with a large enough effect in the signal ratio, with a control signal flat (not every such curve was filed as active); inconclusive means small, poorly fitted or top-dose-only effect, or effect the other way, or a change in a side signal; inactive means flat fitted curve, though single readings scatter; the % refers to the signal ratio. Potencies beside an inconclusive call are fits to weak or partial responses and may not hold up.

Experiment: qHTS Assay to Find Inhibitors of Chronic Active B-Cell Receptor Signaling;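 on activity change, negative = inhibition: plate controls were basal doxycycline-induced cells for no effect and cells given 10 µM MG132 for full effect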
Details: ABC-DLBCL IkBa-CBG/CBR reporter, luminescence ratio (green luciferase fused to IkBa over red control in TMD8 lymphoma cells), 4 h; activity change, negative = inhibition: at 46.1 µM (top of the series)
Summary of the method: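 TMD8 ABC-DLBCL cells carrying doxycycline-inducible green luciferase fused to IkappaBalpha plus unfused red luciferase were exposed to compounds (up to 46 uM) for 4 hrs at 37C. Activity came from the overlap-corrected green/red luminescence ratio.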
Potency means the concentration at half of the fitted maximal effect.

Row | SMILES | Potency | activity change, negative = inhibition
1 | CC(C)(C)OC(=O)NCCCCCNC(=O)c1[nH]cnc1C(=O)N[C@@H](Cc1ccccc1)C(=O)OCc1ccccc1 | inconclusive: 22.4 µM [falling, single point] | –
2 | Cc1cccc(NS(=O)(=O)c2cc3c4c(c2)CCC(=O)N4CCC3)c1 | – | inconclusive: 1.65%
3 | Cc1ccc(-c2nn(-c3ccccc3)cc2/C=C/C(=O)Nc2cccc(S(N)(=O)=O)c2)cc1 | – | inconclusive: -19.6%
4 | Cc1ccc(N(C)C(=O)N2CCN(c3ccccn3)CC2)cc1 | – | inconclusive: -0.237%
5 | CC1CCN(CCc2nc3cc(NC(=O)COc4ccc([N+](=O)[O-])cc4)ccc3n2C)CC1 | – | inconclusive: -8.66%
6 | COc1cc(/C=N/NC(=O)c2cncc(Br)c2)cc([N+](=O)[O-])c1O | inconclusive: 35.5 µM [falling, single point] | –
7 | c1ccc(CN2CCC(N3CCN(Cc4ccc5c(c4)OCO5)CC3)CC2)cc1 | – | inactive
8 | N#CCC(=O)N/N=C/c1ccc(Sc2nc3ccccc3s2)o1 | inconclusive: 20 µM [falling, single point] | –
9 | C=CCNC(=O)CSc1nnc(-c2ccccn2)n1Cc1ccccc1 | – | inconclusive: 1.33%
10 | COc1ccc2oc(=O)c(C(=O)NCc3ccc4c(c3)OCO4)cc2c1 | – | inconclusive: 6.58%
11 | O=S(=O)(O)c1nnc2sc3ccccc3n12 | – | inactive
12 | Cc1cccc(OCC(=O)N2CCC(c3ccccc3)C2)c1 (centres undefined) | – | inconclusive: 0.61%
13 | COc1ccc2nc(N3C(=O)CC(Cc4ccc(C)cc4)C3=O)sc2c1 (centres undefined) | – | inconclusive: -0.637%
14 | Cn1cccc1/C=N/N1CCN(Cc2cccc3ccccc23)CC1 | – | inactive
15 | COc1cc(C(=O)Oc2cccc(C=O)c2)cc(OC)c1OC | – | inactive
16 | C/C(=C1/SC(=S)N(CCC(=O)O)C1=O)c1ccc(O)cc1 | inconclusive: 6.51 µM [rising, partial curve] | –
17 | C/C(=N\NC(=O)CSCc1ccccc1Cl)c1cccc(NC(=O)c2ccccc2)c1 | – | inconclusive: 4.33%
18 | COc1ccc(-c2nnn(-c3ccc(Cl)cc3Cl)c2N)cc1 | – | inconclusive: -12.2%
19 | N/C(=N\OC(=O)N1CCOCC1)c1ccc(Cl)cc1 | inconclusive: 20.6 µM [falling, single point] | –
20 | COc1ccc2oc(C(=O)OCC(=O)N(C)CC(=O)Nc3ccc(C)cc3)c(C)c2c1 | – | inconclusive: -0.483%

Row | SMILES | Potency | activity change, negative = inhibition
21 | Fc1ccc2nc(Nc3nc4c(F)cc(F)cc4s3)sc2c1 | – | inconclusive: 6.78%
22 | C/C(=N\NC(=O)CC#N)c1cc2ccc(O)cc2oc1=O | inconclusive: 35.5 µM [falling, single point] | –
23 | Cc1ccc(NC(=O)Nc2ccon2)cc1 | – | inactive
24 | O=C(Nc1ccn(-c2ccccc2)n1)c1ccccc1Br | inconclusive: 5.8 µM [falling, partial curve] | –
25 | Cc1c(CC(=O)N[C@@H](C)C(=O)O)c(=O)oc2cc3occ(-c4ccccc4)c3cc12 | – | inconclusive: 9.19%
26 | Cc1cccc(NC(=O)Nc2ccc3c(c2)OCO3)n1 | – | inconclusive: -21.8%
27 | CCN(CC)CCN1C(=O)C(=O)/C(=C(/O)c2ccc(OC)cc2)C1c1ccco1 (centres undefined) | – | inconclusive: 6.96%
28 | COc1ccc(-c2[nH]ncc2/C=N/NC(=O)c2cc(Br)ccc2O)c(OC)c1 | inconclusive: 25.9 µM [rising, single point] | –
29 | Cc1ccc(Cl)cc1N1CCN(C(=O)Cn2ccc3ccccc3c2=O)CC1 | – | inactive
30 | CCN(CC)C(=O)c1ccc2c(c1[N+](=O)[O-])C(=O)c1ccccc1C2=O | inconclusive: 0.291 µM [rising, full curve, poor fit] | –
31 | Cc1cc(OCC(=O)O/N=C(\N)c2ccccc2)cc(C)c1Cl | – | inconclusive: 5.82%
32 | COc1cc(C#Cc2c(-c3ccccc3OC)oc3ccccc23)cc(OC)c1 | – | inconclusive: 14.2%
33 | C[C@@H]1CN([C@H](C)CO)C(=O)c2cccc(NC(=O)NC3CCCCC3)c2O[C@@H]1CN(C)C(=O)Nc1ccc(C(F)(F)F)cc1 | – | inconclusive: -6.91%
34 | COc1cc(/C=C/C(=O)c2ccc(NS(=O)(=O)c3ccc(C)cc3)cc2)ccc1OC(F)F | inconclusive: 23.1 µM [falling, single point] | –
35 | O=C(CCCN1C(=O)/C(=C\c2cccs2)SC1=S)Nc1ccc(C(=O)O)cc1 | inconclusive: 20 µM [falling, partial curve, poor fit] | –
36 | O=[N+]([O-])c1cc([N+](=O)[O-])c(Oc2ccccc2F)cc1NN1CCCCC1 | – | inactive
37 | O=C(CSc1nc2c([nH]c3ccccc32)c(=O)n1-c1ccccc1F)NCC1CCCO1 (centres undefined) | – | inconclusive: -13.8%
38 | NC(=O)C1CCN(C(=S)c2ccc(-c3ccc(Br)cc3)o2)CC1 | – | inconclusive: 14.7%
39 | Cc1nnc(-c2ccccc2)c(=O)n1/N=C/c1c(O)ccc2ccccc12 | inconclusive: 22.4 µM [falling, partial curve, poor fit] | –

Two records picked at random from those above, as already listed:
Row | SMILES | Potency | activity change, negative = inhibition
33 | C[C@@H]1CN([C@H](C)CO)C(=O)c2cccc(NC(=O)NC3CCCCC3)c2O[C@@H]1CN(C)C(=O)Nc1ccc(C(F)(F)F)cc1 | – | inconclusive: -6.91%
27 | CCN(CC)CCN1C(=O)C(=O)/C(=C(/O)c2ccc(OC)cc2)C1c1ccco1 (centres undefined) | – | inconclusive: 6.96%
